PubChem BioAssay AID504764 | Drosophila RNAi Screening Center – 2011

- Aim: 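Knock-downs that raise or lower a Notch target reporter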 (primary screen)
- System: Drosophila Kc167 cells
- Reagents: long dsRNA against Drosophila genes
- Duration: about 5 days (4 days dsRNA, then 24 h after transfection)
- Conditions: transfection of constitutively active membrane-tethered Notch lacking the extracellular domain, read 24 h later
- Measured: 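Light from a Notch-responsive E(spl)m3 luciferase reporter under active Notch, with control-promoter and no-Notch reporter wells to normalise; raw counts from paired wells a and b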
- Reading the numbers: induced reporter light, run 1, well a and induced reporter light, run 1, well b: higher = more light from the Notch target reporter with active Notch; control promoter light, run 1, well a and control promoter light, run 1, well b: higher = more light from the viral control promoter (cell number, transfection, viability); uninduced reporter light, run 1, well a: higher = more light from the Notch target reporter without active Notch
- Active means: 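Wells with low control signal or poorly matching duplicates excluded; duplicates averaged; per source plate, z beyond ±2 for induced/control log2 ratio or beyond ±1.8 for induced/uninduced marks a hit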
- Meaning of the calls: active = modifier hit (raised or lowered Notch signal); inactive = not a hit
The deposit covers about 22,000 reagents; this is an unselected part of those with a known target gene and a result. Over the whole deposit, 403 (1.9%) were called active. 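Unnormalised raw counts per well; ratio z-scores behind the hit calls and whether each hit raises or lowers signal are not deposited.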 A number with no mark means an inactive call. The numbers tell different reagents against one gene apart. Names joined by + are all predicted targets of the reagent. Reagent sequences are not shown. Not given: the amount of reagent.

gene,reagent,"induced reporter light, run 1, well a","induced reporter light, run 1, well b","control promoter light, run 1, well a","control promoter light, run 1, well b","uninduced reporter light, run 1, well a"
Vajk2 (GeneID 34811),1,1.37e5,1.43e5,1.43e5,1.85e5,12130
TfIIA-S (GeneID 42822),1,1.62e5,1.76e5,1.31e5,1.15e5,13195
Opbp (GeneID 246618),1,1.28e5,1.45e5,1.12e5,1.31e5,8530
b6 (GeneID 31124),1,1.01e5,1.02e5,2.09e5,1.62e5,9465
mspo (GeneID 36632),1,1.01e5,95380,1.39e5,1.08e5,8850
CG14495 (GeneID 37056),1,1.49e5,1.29e5,1.86e5,1.45e5,9165
CG13022 (GeneID 39896),1,90675,97645,1.15e5,1.13e5,6650
CG1824 (GeneID 32208),1,1.17e5,90445,1.39e5,1.58e5,5970
CG13220 (GeneID 36200),1,1.21e5,1.35e5,1.59e5,1.33e5,11660
vlc (GeneID 46078),1,1.46e5,1.35e5,1.54e5,1.54e5,10320
Trm7-32 (GeneID 42056),1,1.11e5,1.19e5,1.04e5,1.05e5,11380
CG16723 (GeneID 42781),1,1.98e5,1.87e5,2.31e5,1.96e5,14050
CG34253 (GeneID 5740501),1,2.08e5,1.63e5,2.56e5,3.46e5,15920
fmt (GeneID 38714),1,42655 (active),50890,49200,13165,6985
mfas (GeneID 41455),1,1.11e5,1.13e5,83560,77770,9405
nullo (GeneID 31652),1,1.40e5,1.25e5,2.23e5,2.10e5,10660
CHES-1-like (GeneID 31678),1,1.25e5,1.20e5,2.00e5,1.99e5,10140
CG11113 (GeneID 35659),1,1.88e5,1.77e5,2.01e5,2.25e5,17335
AMPdeam (GeneID 32352),1,93075,1.03e5,76295,86015,7340
AMPdeam (GeneID 32352),2,1.67e5,1.46e5,1.87e5,1.97e5,9170
AMPdeam (GeneID 32352),3,1.20e5,1.23e5,1.32e5,1.50e5,17215
AMPdeam (GeneID 32352),4,1.24e5,1.20e5,1.91e5,1.62e5,17845
Arpc3B (GeneID 32696),1,53115,56115,67575,60005,6950
frma (GeneID 31464),1,1.86e5,1.42e5,2.32e5,1.88e5,10805
Idh3a (GeneID 32940),1,76930,80780,1.03e5,1.13e5,10055
GIIIspla2 (GeneID 31747),1,2.04e5,1.56e5,2.21e5,2.08e5,14125
CG16926 (GeneID 50205),1,96405,83910,1.89e5,2.16e5,8030
Prosbeta4 (GeneID 34999),1,57910,59655,64745,60615,3765
CG33969 (GeneID 40252),1,1.39e5,1.08e5,1.03e5,1.06e5,8665
Srrm1 (GeneID 39483),1,1.56e5,1.62e5,1.62e5,1.58e5,6935
TwdlH (GeneID 43208),1,1.37e5,1.35e5,2.01e5,1.81e5,14060
RpS11 (GeneID 36321),1,1.20e5,1.29e5,1.16e5,1.42e5,8525
CG34225 (GeneID 5740807),1,1.57e5,1.89e5,2.67e5,3.25e5,20120
Rpi (GeneID 246599),1,1.83e5,1.81e5,1.53e5,1.54e5,13190
CG15878 (GeneID 38281),1,1.03e5,1.27e5,1.77e5,1.36e5,6215
CNT1 + CG13742,1,2.30e5,2.36e5,2.76e5,2.67e5,18660
Acsx3 (GeneID 42354),1,1.33e5,2.01e5,1.89e5,2.11e5,18150
CG13585 (GeneID 37918),1,1.97e5,1.82e5,1.89e5,1.87e5,16100
Vps53 (GeneID 33640),1,1.74e5,1.66e5,1.61e5,1.52e5,16385
Rrp42 (GeneID 36766),1,73310,99445,1.37e5,1.19e5,8430
CG14655 (GeneID 40594),1,1.84e5,1.61e5,2.74e5,2.58e5,12075
CG5969 (GeneID 40269),1,1.20e5,94155,60105,81040,6975
CG5815 (GeneID 43266),1,1.23e5,1.26e5,1.61e5,1.47e5,10535
CG6295 (GeneID 43247),1,1.37e5,1.53e5,1.71e5,1.67e5,13455
gammaSnap1 (GeneID 37842),1,2.12e5,1.61e5,1.50e5,1.87e5,12875
CG4887 (GeneID 33304),1,1.44e5,1.33e5,1.17e5,71040,11580
CG2233 (GeneID 31721),1,2.41e5,2.22e5,3.26e5,3.36e5,14825
CG14841 (GeneID 41735),1,2.01e5,1.97e5,1.76e5,1.90e5,16238
Vps28 (GeneID 47408),1,94845,1.20e5,88555,73470,7625
CG12054 (GeneID 43694),1,9850,10405,12525,14190,3910
Ir8a (GeneID 31867),1,1.48e5,1.15e5,2.45e5,1.88e5,10925
Ir8a (GeneID 31867),2,99915,97685,1.28e5,1.77e5,7250
RSG7 (GeneID 32674),1,1.19e5,77155,94825,92325,12335
CG15027 (GeneID 32440),1,90855,84925,1.20e5,95765,12470
CG17344 (GeneID 35185),1,83870,62240,77340,1.41e5,4910
CG5321 (GeneID 32399),1,74255,61385,87735,91640,11335
Ubc84D (GeneID 40900),1,82155,88935,73960,57835,6580
Eaf6 (GeneID 38637),1,2.48e5,2.69e5,2.98e5,3.51e5,12660
jub (GeneID 32351),1,1.10e5 (active),81040,52620,54745,7565
GABA-B-R2 (GeneID 42561),1,1.73e5,2.13e5,2.62e5,2.67e5,16445
zfh1 (GeneID 43650),1,51720,61745,64640,61445,5035
zfh1 (GeneID 43650),2,71385,80175,43145,46075,7420
Rnmt (GeneID 34877),1,1.51e5,1.62e5,1.68e5,2.07e5,12590
CG10887 (GeneID 42399),1,1.65e5,1.47e5,1.55e5,1.60e5,12040

5 neighbouring records from above:
gene,reagent,"induced reporter light, run 1, well a","induced reporter light, run 1, well b","control promoter light, run 1, well a","control promoter light, run 1, well b","uninduced reporter light, run 1, well a"
CG13220 (GeneID 36200),1,1.21e5,1.35e5,1.59e5,1.33e5,11660
vlc (GeneID 46078),1,1.46e5,1.35e5,1.54e5,1.54e5,10320
Trm7-32 (GeneID 42056),1,1.11e5,1.19e5,1.04e5,1.05e5,11380
CG16723 (GeneID 42781),1,1.98e5,1.87e5,2.31e5,1.96e5,14050
CG34253 (GeneID 5740501),1,2.08e5,1.63e5,2.56e5,3.46e5,15920
